From article PMC7819943, “Rice protein-binding microarrays: a tool to detect cis-acting elements near promoter regions in rice” come the findings set out here.

Protein sequences, listed by entry. Tags and fused reporters are not part of them.
UniProt Q0JBA9, entry or part of it: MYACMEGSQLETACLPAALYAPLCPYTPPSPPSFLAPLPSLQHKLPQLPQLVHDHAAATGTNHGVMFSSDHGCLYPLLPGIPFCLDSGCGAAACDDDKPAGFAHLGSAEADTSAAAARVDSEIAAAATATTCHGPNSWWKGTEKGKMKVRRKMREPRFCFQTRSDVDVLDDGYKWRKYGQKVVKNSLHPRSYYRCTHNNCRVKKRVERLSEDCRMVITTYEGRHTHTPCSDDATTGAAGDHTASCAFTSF

The list shows a part of the results.

In the assay the target is OsWRKY34 (Oryza sativa, UniProt Q0JBA9 1-250). Description: protein-binding microarray (RPBM); PBS, 2% BSA, 51.3 ng/ul salmon testes DNA, 50 uM zinc acetate, 200 nM TF, 25 C, 1 h; high values mean tight binding. Particulars: protein: recombinant; tags: N-terminal polyhistidine and DsRed monomer fusion (pET32a); label: CyDye5-dUTP incorporated in the synthesized complementary strand; 3' TTTTT single-stranded linker to array surface; dsDNA, one strand shown. The procedure, abridged: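 Transcription factors were made in E. coli BL21-CodonPlus as N-terminal fusions to a polyhistidine tag and DsRed, then purified on Ni–NTA. After primer extension with Cy5-dUTP and blocking with 2% BSA, a custom Agilent array was exposed for 1 h at 25 °C to 200 nM protein in PBS, 2% BSA, salmon testes DNA and 50 µM zinc acetate. Washed arrays were scanned on an Axon 4000B, and the binding signal is per-feature fluorescence intensity in arbitrary units.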
“TGGATCACTCAATTGTTTTTTTTTTGTTTTTTCCTTTATTCGGAGTCACCTAGTGCAG”: the binding signal was 9740 fluorescence intensity (a.u.).

Turning to “ATCGCTCTTGCCCTTTGCAGTCTCTGCTTTGTTTTAGAGACGGAGTCACCTAGTGCAG”, the binding signal is 10100 fluorescence intensity (a.u.).

Regarding “TTCCTGGTTTTTCTGTTGAGGAAAAGATCGCCCCTTATCCCGGAGTCACCTAGTGCAG”, the binding signal is 10100 fluorescence intensity (a.u.).

On to “TGAGGGGAGGGTGGTAAAGCATGTTGAGGACTTTACATTTCGGAGTCACCTAGTGCAG”, for which the binding signal is 10900 fluorescence intensity (a.u.).

As for “TTGTCCACATTTAATACTCTATGCATGTGTCCAAACATTTCGGAGTCACCTAGTGCAG”, the binding signal was 8040 fluorescence intensity (a.u.).

In the case of “CCTATCATTTGATTCATTGTTAAATATACTTTTATGTATACGGAGTCACCTAGTGCAG”, the binding signal is 8270 fluorescence intensity (a.u.).

On to “GCCACTACTCATCACTACTTAAGATTCCCATGCAGGACTACGGAGTCACCTAGTGCAG”, for which the binding signal is 9170 fluorescence intensity (a.u.).

“ATACAACTTCGTCTGGCGCCCTCAATCGATCTCGCTCTATCGGAGTCACCTAGTGCAG”: the binding signal was 9870 fluorescence intensity (a.u.).

On to “TATTTTGGCATTGTGTCGTGTCTTGTCTTGTGTGCTGCAACGGAGTCACCTAGTGCAG”, for which the binding signal is 13800 fluorescence intensity (a.u.).

With “AAGCGTGTAGTTCATAATGCCGTGTAAACCATCAATCTGTCGGAGTCACCTAGTGCAG”, the binding signal was 8120 fluorescence intensity (a.u.).

As to “GCCACTTCTCGTCTCCAGCCACGCGTGGTCCTTCACCTCCCGGAGTCACCTAGTGCAG”, the binding signal was 8740 fluorescence intensity (a.u.).

Consider “CTCTGTGTCCCCGGCCGTGTATTTTTTCCTATTATCCTCTCGGAGTCACCTAGTGCAG”, for which the binding signal was 13100 fluorescence intensity (a.u.).

On to “ACTTTCTGTATCTATATATACGTAAGCACGTCCTGATTCTCGGAGTCACCTAGTGCAG”, for which the binding signal was 12200 fluorescence intensity (a.u.).

Take “GCTTTGACTGCTCATGCGGTTACTCTCCACTCGTGAGGGGCGGAGTCACCTAGTGCAG”: the binding signal was 8640 fluorescence intensity (a.u.).

In the case of “TTTTTTCTGGGATAAGTTTTTCTAGGGGTTTATTTTAGAACGGAGTCACCTAGTGCAG”, the binding signal is 9220 fluorescence intensity (a.u.).

For “TTTAGTCTTGATCGAGTTGGTTGGCTCTATTTGTGTTTGACGGAGTCACCTAGTGCAG”, the binding signal was 10900 fluorescence intensity (a.u.).

For the sequence “ATATTTTACTTCTCCCGTCTTCTTTCCCAATGGACACACACGGAGTCACCTAGTGCAG”, the binding signal was 8040 fluorescence intensity (a.u.).

For “AGGAAGCCCCATTCCATCCACACGTTTCAGCTGTCTTTCACGGAGTCACCTAGTGCAG”, the binding signal is 9490 fluorescence intensity (a.u.).

Take “ACTCCCGTCGCCGTCAAGGTCGCCGAGGGGAGGGGAGGGGCGGAGTCACCTAGTGCAG”: the binding signal is 13400 fluorescence intensity (a.u.).

As for “GATGATGTGTCCTAATCCACGCACTGCTCTGTTTAAATCTCGGAGTCACCTAGTGCAG”, the binding signal is 9090 fluorescence intensity (a.u.).

Regarding “AGCTCGTGTGGTGTATGTTGTTGTGTGCTGCTAGCTAGCTCGGAGTCACCTAGTGCAG”, the binding signal is 10200 fluorescence intensity (a.u.).

Regarding “CACACACGCAGACCTTATCCCTATGAGCACCTCCATATAACGGAGTCACCTAGTGCAG”, the binding signal is 8550 fluorescence intensity (a.u.).

As to “ATGTAATTTACGTGAGTCTGTACACATGTTTCCTGCATTTCGGAGTCACCTAGTGCAG”, the binding signal is 10600 fluorescence intensity (a.u.).

For “GCGTTATCTTTGGTTCTTAAATCCTCCTTGTAATATGAATCGGAGTCACCTAGTGCAG”, the binding signal was 9690 fluorescence intensity (a.u.).

For the sequence “TGCTGCTCCCGCGCCCGCCGCCGCTCCCGCTCCCGCCTCACGGAGTCACCTAGTGCAG”, the binding signal was 9310 fluorescence intensity (a.u.).

“ATCTCTTGTTTGTTGTGTGCGTTTTGGTTTCAGAAATCATCGGAGTCACCTAGTGCAG”: the binding signal is 13500 fluorescence intensity (a.u.).

“TTTTCCCAGCCGCCACTGTTCCTGGGCCGCGAGGTGCTCGCGGAGTCACCTAGTGCAG”: the binding signal is 8870 fluorescence intensity (a.u.).

For the sequence “CCCCGACCCCGCCGCCGCCGACCTCTCTCCTCCGCGCCGCCGGAGTCACCTAGTGCAG”, the binding signal was 8240 fluorescence intensity (a.u.).

On to “TATATATATATATATATATATAGAGGAACTGGATATTTGGCGGAGTCACCTAGTGCAG”, for which the binding signal is 14600 fluorescence intensity (a.u.).

For the sequence “TATTTTCCTACCATTTGATTTATTGTTAAATATACTTTTTCGGAGTCACCTAGTGCAG”, the binding signal is 10200 fluorescence intensity (a.u.).

With “GGAAACCGTTTCCAATTCTCCATCCTCTCTATCTTCCTCTCGGAGTCACCTAGTGCAG”, the binding signal was 10300 fluorescence intensity (a.u.).

As for “TGATTTACGATCTGACTCGTTTGCTTTGGTATGATTCTCCCGGAGTCACCTAGTGCAG”, the binding signal is 8130 fluorescence intensity (a.u.).

For the sequence “CAATTATCACCCATGCATCATGCACGCAACTATCTATACCCGGAGTCACCTAGTGCAG”, the binding signal was 9040 fluorescence intensity (a.u.).

Take “GCTGATGGGAAAGTTCAGCGTCGAGTATTTTGGGGCATTTCGGAGTCACCTAGTGCAG”: the binding signal was 10100 fluorescence intensity (a.u.).

Regarding “GGCGTGTTGTGTTCGGGTGGGTGCTGCGCAGGCTGCTGTACGGAGTCACCTAGTGCAG”, the binding signal is 17300 fluorescence intensity (a.u.).

In the case of “TCGTGGCGGATTTGGATTTTAACGGATGGGATCGTATGGACGGAGTCACCTAGTGCAG”, the binding signal is 9670 fluorescence intensity (a.u.).

Regarding “GTGCACACTTGTACTTGTCATTGTACGTATTTTCGTCATGCGGAGTCACCTAGTGCAG”, the binding signal was 8260 fluorescence intensity (a.u.).

“AAGGGATTTTGATATTTTACTTGTACTGTTTGACCACTCGCGGAGTCACCTAGTGCAG”: the binding signal was 11600 fluorescence intensity (a.u.).

Regarding “AGTTCATAGCTAGTGTTTTATTCCGTTATCCGCCTAACTTCGGAGTCACCTAGTGCAG”, the binding signal was 14000 fluorescence intensity (a.u.).

Turning to “TACTTCCATCTCATTTTGACCATTCTTAAGATTTTTTTAGCGGAGTCACCTAGTGCAG”, the binding signal was 9030 fluorescence intensity (a.u.).

In the case of “CTGTGTGTTGGTCCTGATAGATGGAGGGTCAGTCGCTCACCGGAGTCACCTAGTGCAG”, the binding signal is 9830 fluorescence intensity (a.u.).

On to “AAGTTTGTGTTGCAGCTGCCTATAAATATGTAGCTCGTTTCGGAGTCACCTAGTGCAG”, for which the binding signal is 8610 fluorescence intensity (a.u.).
